Here are results for 2 substances from PMC9035678.

Sequences of proteins named here, by UniProt entry; tags and fusion partners are left off. A change or cut given only in a name is not applied to a line headed by its entry.
UniProt O04379: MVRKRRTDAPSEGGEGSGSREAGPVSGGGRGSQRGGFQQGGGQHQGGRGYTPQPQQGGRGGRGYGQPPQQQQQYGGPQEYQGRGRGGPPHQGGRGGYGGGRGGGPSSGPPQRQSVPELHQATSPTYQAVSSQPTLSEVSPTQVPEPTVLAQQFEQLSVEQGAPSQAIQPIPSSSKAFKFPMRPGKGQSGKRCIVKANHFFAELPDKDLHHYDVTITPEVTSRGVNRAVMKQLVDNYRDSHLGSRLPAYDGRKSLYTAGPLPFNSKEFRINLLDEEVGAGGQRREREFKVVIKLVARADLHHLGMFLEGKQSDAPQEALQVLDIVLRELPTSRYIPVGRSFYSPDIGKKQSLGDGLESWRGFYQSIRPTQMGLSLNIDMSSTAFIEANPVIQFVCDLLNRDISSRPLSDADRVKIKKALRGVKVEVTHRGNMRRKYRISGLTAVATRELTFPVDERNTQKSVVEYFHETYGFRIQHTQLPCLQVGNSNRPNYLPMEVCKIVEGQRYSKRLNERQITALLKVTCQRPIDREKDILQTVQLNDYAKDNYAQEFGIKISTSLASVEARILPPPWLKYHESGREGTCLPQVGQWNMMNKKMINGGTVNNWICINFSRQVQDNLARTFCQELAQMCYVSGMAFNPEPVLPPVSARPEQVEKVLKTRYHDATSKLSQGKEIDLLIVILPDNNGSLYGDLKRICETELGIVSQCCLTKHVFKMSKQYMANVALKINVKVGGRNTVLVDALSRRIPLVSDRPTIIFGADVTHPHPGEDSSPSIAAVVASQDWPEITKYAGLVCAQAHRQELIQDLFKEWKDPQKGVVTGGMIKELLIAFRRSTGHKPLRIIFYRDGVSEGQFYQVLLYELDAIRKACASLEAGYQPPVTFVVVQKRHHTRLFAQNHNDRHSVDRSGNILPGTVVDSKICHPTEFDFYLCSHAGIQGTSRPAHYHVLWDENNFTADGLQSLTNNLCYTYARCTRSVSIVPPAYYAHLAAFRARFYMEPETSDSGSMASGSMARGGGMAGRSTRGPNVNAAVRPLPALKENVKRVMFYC

In this test the target is T1, 3HA-FBW2 (3x human influenza hemagglutinin (HA)-epitope at the N terminus of FBW2) (Arabidopsis thaliana) (UniProt Q9ZPE4).
T1 sequence: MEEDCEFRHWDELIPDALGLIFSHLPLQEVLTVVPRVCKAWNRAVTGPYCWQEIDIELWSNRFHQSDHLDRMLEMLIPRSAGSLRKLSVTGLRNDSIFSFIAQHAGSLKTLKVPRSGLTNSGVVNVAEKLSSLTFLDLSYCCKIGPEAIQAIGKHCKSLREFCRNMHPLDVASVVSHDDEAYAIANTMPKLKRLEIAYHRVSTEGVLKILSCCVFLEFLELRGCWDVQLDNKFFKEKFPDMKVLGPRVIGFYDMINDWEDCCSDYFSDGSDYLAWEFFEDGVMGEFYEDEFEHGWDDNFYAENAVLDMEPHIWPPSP
The experiment in a line: co-IP; 3HA-FBW2 immunoprecipitated with anti-HA magnetic beads from extracts of 10-day-old XVE:3HA-FBW2 seedlings after overnight induction with DMSO or 10 μM β-estradiol, with or without MLN4924; IP buffer 25 mM Tris HCl pH 7.5, 150 mM NaCl, 10% glycerol, 5 mM MgCl2, 0.1% Tween 20, 15 mM EGTA, 10 μM MG132; 3 h at room temperature; western blot (Figure 2B, Figure S9). On the technique in general: A western blot detects proteins with antibodies after separation by electrophoresis.

No constants are given. Whether binding was seen depends on the method and setting. Binding seen in cells or lysates may run through a third protein. Binding can be weak; no strength is given. Where a sequence is shown, tags or fusion partners need not be part of it.

“AGO1-27 mutant protein (from UniProt O04379)”: the binding entry was “binds”. Take RBX1: the binding entry is “binds”.
